Laboratory results reported in the supplement of paper PMC10331698.
± gives the standard deviation of the averaged measurements. Most entries show no effect beyond the scatter of the controls.

Experiments:
Experiment in all cases: level (log10 ratio to DMSO vehicle control); higher = higher biomarker level / cell amount than vehicle control
[1] = compound: C=C(C)C(=O)OCCC(F)(F)C(F)(F)C(F)(F)C(F)(F)C(F)(C(F)(F)F)C(F)(F)F [(Perfluoro-5-methylhexyl)ethyl 2-methylprop-2-enoate]; conditions: in DMSO
Method: (§1)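 BioMAP Diversity Plus panel of 12 human primary cell co-culture systems (3C, 4H, LPS, SAg, BT, BF4T, BE3C, CASM3C, HDF3CGF, KF3CT, MyoF, Mphg). Compounds were added 1 h before stimulation and left for 24 h (MyoF 48 h; BT 72 h for soluble read-outs or 6 d for IgG). Biomarkers were read by ELISA, cytotoxicity by SRB, PBMC viability and proliferation by Alamar Blue. Each well value was divided by the mean of 8 DMSO control wells on the same plate and log10 transformed; duplicate blinded samples were tested at 4 concentrations.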

[2] = compound: C=C(C)C(=O)OCCC(F)(F)C(F)(F)C(F)(F)C(F)(F)C(F)(F)C(F)(F)C(F)(F)C(F)(F)F [8:2 Fluorotelomer methacrylate]; conditions: in DMSO
Method: as §1

[3] = compound: COC(=O)CCC(F)(F)C(F)(F)C(F)(F)C(F)(F)F [Methyl 2H,2H,3H,3H-perfluoroheptanoate]; conditions: 2200 nM; in DMSO
Method: as §1

[4] = compound: FC(F)(F)C(F)(F)C(F)(F)C(F)(F)C(F)(F)CCI [1-Iodo-1H,1H,2H,2H-perfluoroheptane]; conditions: 2200 nM; in DMSO
Method: as §1

Octafluoroadipamide = compound: NC(=O)C(F)(F)C(F)(F)C(F)(F)C(F)(F)C(N)=O [Octafluoroadipamide]; conditions: 2200 nM; in DMSO
Method: as §1

Nonafluoropentanamide = compound: NC(=O)C(F)(F)C(F)(F)C(F)(F)C(F)(F)F [Nonafluoropentanamide]; conditions: 2200 nM; in DMSO
Method: as §1

[5] = compound: NS(=O)(=O)C(F)(F)C(F)(F)C(F)(F)C(F)(F)C(F)(F)C(F)(F)F [Perfluorohexanesulfonamide]; conditions: 2200 nM; in DMSO
Method: as §1

Tetrafluorosuccinic acid = compound: O=C(O)C(F)(F)C(F)(F)C(=O)O [Tetrafluorosuccinic acid]; conditions: 2200 nM; in DMSO
Method: as §1

[6] = compound: O=C(O)C(F)(F)C(F)(F)C(F)(F)C(F)(F)C(F)(F)C(F)(F)C(F)(F)C(F)(F)Cl [9-Chloro-perfluorononanoic acid]; conditions: in DMSO
Method: as §1

[7] = compound: O=C(O)CCC(F)(F)C(F)(F)C(F)(F)C(F)(F)C(F)(F)F [2H,2H,3H,3H-Perfluorooctanoic acid]; conditions: 2200 nM; in DMSO
Method: as §1

[8] = compound: O=S(=O)(O)C(F)(F)C(F)(F)OC(F)(F)C(F)(F)F [Perfluoro(2-ethoxyethane)sulfonic acid]; conditions: 2200 nM; in DMSO
Method: as §1

[9] = compound: O=S(=O)(O)CCC(F)(F)C(F)(F)C(F)(F)C(F)(F)C(F)(F)C(F)(F)F [6:2 Fluorotelomer sulfonic acid]; conditions: in DMSO
Method: as §1

Perfluoropinacol = compound: OC(C(F)(F)F)(C(F)(F)F)C(O)(C(F)(F)F)C(F)(F)F [Perfluoropinacol]; conditions: in DMSO
Method: as §1

[10] = compound: OCCC(F)(F)C(F)(F)C(F)(F)C(F)(F)F [4:2 Fluorotelomer alcohol]; conditions: 2200 nM; in DMSO
Method: as §1

Row | Test System | level (log10) ([1]; 740 nM) | level (log10) ([1]; 2200 nM) | level (log10) ([1]; 6700 nM) | level (log10) ([1]; 20000 nM) | level (log10) ([2]; 740 nM) | level (log10) ([2]; 2200 nM) | level (log10) [3] | level (log10) [4] | level (log10) (Octafluoroadipamide) | level (log10) (Nonafluoropentanamide) | level (log10) [5] | level (log10) (Tetrafluorosuccinic acid) | level (log10) ([6]; 2200 nM) | level (log10) ([6]; 6700 nM) | level (log10) ([6]; 20000 nM) | level (log10) [7] | level (log10) [8] | level (log10) ([9]; 2200 nM) | level (log10) ([9]; 6700 nM) | level (log10) ([9]; 20000 nM) | level (log10) ([9]; 60000 nM) | level (log10) (Perfluoropinacol; 2200 nM) | level (log10) (Perfluoropinacol; 6700 nM) | level (log10) (Perfluoropinacol; 20000 nM) | level (log10) [10]
1 | MyoF:Collagen I | -0.0235 ± 0.0064 | -0.02 | -0.0325 ± 0.037 | -0.037 ± 0.02 | -0.0045 ± 0.029 | 0 ± 0.0028 | 0.0045 ± 0.013 | 0.0015 ± 0.015 | 0.007 ± 0.028 | -0.0115 ± 0.022 | 0.001 ± 0.0042 | -0.0115 ± 0.016 | -0.0125 ± 0.033 | -0.0135 ± 0.005 | -0.29 ± 0.019 | 0.0065 ± 0.032 | 0.0225 ± 0.005 | 0.026 ± 0.03 | 0.011 ± 0.025 | -0.022 ± 0.016 | 0 ± 0.0085 | 0.0095 ± 0.011 | 0.044 | -0.006 ± 0.0099 | -0.008 ± 0.033
2 | MyoF:Collagen IV | 0.0035 ± 0.0021 | 0.015 ± 0.048 | 0.025 ± 0.02 | 0.058 ± 0.1 | 0 ± 0.0042 | -0.001 ± 0.014 | -0.005 ± 0.047 | 0.043 ± 0.02 | 0.0035 ± 0.033 | -0.023 ± 0.064 | -0.014 ± 0.0014 | 0.011 ± 0.016 | 0.0095 ± 0.012 | 0.024 ± 0.0071 | 0.264 ± 0.031 | -0.026 ± 0.018 | 0.01 ± 0.0099 | -0.023 ± 0.031 | -0.0185 ± 0.033 | -0.006 ± 0.023 | -0.002 ± 0.014 | 0.0295 ± 0.0092 | 0.0385 ± 0.005 | 0.165 ± 0.0028 | 0.0065 ± 0.03
3 | lMphg:CD106/VCAM-1 | -0.0045 ± 0.0092 | -0.004 ± 0.013 | -0.0315 ± 0.011 | -0.014 ± 0.0057 | 0.005 ± 0.0085 | -0.0265 ± 0.0092 | -0.0055 ± 0.00071 | -0.0095 ± 0.028 | 0.001 ± 0.018 | -0.01 ± 0.011 | -0.025 ± 0.025 | 0.006 ± 0.0099 | -0.0155 ± 0.013 | -0.011 ± 0.0099 | -0.016 ± 0.0071 | -0.0035 ± 0.016 | -0.0205 ± 0.033 | -0.006 ± 0.017 | -0.007 ± 0.011 | -0.0125 ± 0.0092 | -0.022 ± 0.0071 | 0.0095 ± 0.0021 | 0.0045 ± 0.0064 | -0.077 ± 0.023 | 0.005 ± 0.0099
4 | MyoF:CXCL8/IL-8 | -0.012 ± 0.024 | -0.0395 ± 0.011 | -0.011 ± 0.011 | -0.0255 ± 0.0064 | 0.012 ± 0.037 | 0.002 ± 0.027 | 0 ± 0.047 | -0.0165 ± 0.0064 | 0.0185 ± 0.047 | -0.0145 ± 0.0021 | 0.059 ± 0.054 | -0.0115 ± 0.033 | -0.004 ± 0.023 | 0.0025 ± 0.015 | -0.06 ± 0.0057 | -0.0635 ± 0.025 | 0.0095 ± 0.087 | -0.0515 ± 0.0064 | 0.007 ± 0.031 | 0 ± 0.018 | 0.016 ± 0.021 | 0.0135 ± 0.022 | 0.0295 ± 0.005 | 0.0265 ± 0.012 | -0.0065 ± 0.019
5 | LPS:CD141/Thrombomodulin | 0.027 ± 0.033 | 0.0075 ± 0.03 | 0.0055 ± 0.0092 | -0.0345 ± 0.021 | 0.0165 ± 0.013 | -0.0015 ± 0.026 | -0.0055 ± 0.018 | -0.0035 ± 0.013 | -0.0295 ± 0.1 | 0.017 ± 0.0014 | -0.01 | 0.0075 ± 0.1 | 0.0355 ± 0.018 | 0.0485 ± 0.033 | 0.064 ± 0.03 | 0.114 ± 0.0085 | 0.082 ± 0.0057 | 0.107 ± 0.05 | 0.061 ± 0.03 | 0.065 ± 0.0057 | 0.0475 ± 0.021 | -0.0115 ± 0.022 | -0.106 ± 0.028 | -0.118 ± 0.005 | -0.0035 ± 0.0021
6 | LPS:CXCL8/IL-8 | 0.008 ± 0.011 | -0.0115 ± 0.054 | 0.006 ± 0.045 | 0.016 ± 0.047 | 0.002 ± 0.0042 | -0.01 ± 0.011 | 0.02 ± 0.038 | 0.009 ± 0.044 | 0.0195 ± 0.094 | -0.003 ± 0.062 | 0.0005 ± 0.023 | 0.006 ± 0.0042 | 0.03 ± 0.068 | 0.019 ± 0.062 | 0.061 ± 0.048 | 0.101 ± 0.019 | 0.063 ± 0.02 | 0.0655 ± 0.0021 | 0.045 ± 0.013 | 0.072 ± 0.064 | 0.192 ± 0.1 | 0 ± 0.0014 | -0.003 ± 0.0028 | -0.0315 ± 0.0021 | -0.0075 ± 0.0078
